PubChem BioAssay AID2685 (National Center for Advancing Translational Sciences (NCATS), 2010)
Some of the results follow. These are further read-outs of the screen, such as a control signal, another cell line or another target. No call is given for them. Compounds called inactive in the main read-out are mostly missing here. Words in brackets tell the shape of the fitted curve; partial curves, single points and poor fits give uncertain potencies.

Test: qHTS Assay for Lipid Storage Modulators in Drosophila S3 Cells;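 on cell number change: cells counted by Cell Tracker Red CMTPX staining in the red channel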
Settings: BODIPY lipid droplet fluorescence, 18-24 h; for cell number change: measured here: cell count max response, cells fed with added oleic acid
Method in brief: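 Drosophila S3 cells loaded with oleic acid (400 uM, as added) and compounds at several concentrations; lipid droplets imaged by 488-nm laser-scanning cytometry, 500–530 nm intensity and object ratio to cell channel. Percent activity normalized to 20 uM Triacsin C.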

[1] = measured here: cell number channel AC50, cells fed with added oleic acid
[2] = measured here: lipid fluorescence (Fed channel) AC50, cells fed with added oleic acid

Row | Structure (SMILES) | AC50 [1] | cell number change | AC50 [2]
1 | NC(=O)c1cccc(NC(=O)CCCCC(=O)Nc2cccc(C(N)=O)c2)c1 | 0.731 µM [falling, single point] |  | 
2 | COC(=O)c1sc(N)c(C(=O)OC)c1COC(=O)c1c(C)noc1C |  | -23.7% | 
3 | O=C(O)c1cccc(N2C(=O)c3cccc4cccc(c34)C2=O)c1 |  | -2.12% | 0.146 µM [falling, full curve, poor fit]
4 | O=C(NCc1ccco1)c1ccc(OCC2CCCO2)cc1 (stereo unspecified) |  | -7.92% | 
5 | COc1cccc(C(=O)N2N=C(c3ccccc3)CC2(O)C(F)(F)F)c1 (stereo unspecified) | 0.366 µM [falling, full curve, poor fit] | -4.77% | 1.16 µM [falling, partial curve, poor fit]
6 | CSc1ccc(C=O)cc1 |  | 4.59% | 
7 | COc1ccccc1CSc1ncc(-c2ccc([N+](=O)[O-])cc2)[nH]1 | 6.51 µM [rising, partial curve, poor fit] | 91.6% | 6.51 µM [rising, single point]
8 | CC1CCc2c(sc(NC(=O)CN3CCN(C(=O)c4ccco4)CC3)c2C#N)C1 (stereo unspecified) | 9.2 µM [rising, single point] | 38.3% | 
9 | CCCCNC(=S)N(C)/N=C/c1ccc(OCC(=O)Nc2ccc(OC)cc2)c(OC)c1 |  | -2.99% | 
10 | COC(=O)C1C(c2ccc(OC)c(OC)c2)NC(c2ccc(OC)c(OC)c2)C(C(=O)OC)S1(=O)=O (stereo unspecified) | 4.61 µM [rising, partial curve, poor fit] | 35.9% | 4.61 µM [rising, partial curve]
11 | COc1ccccc1NC(=O)C/C(C)=N/NC(=O)c1ccccn1 |  | -27.8% | 6.51 µM [rising, single point]
12 | CC1=Nc2cc(Cl)ccc2Oc2ccccc21 |  | -22.8% | 25.9 µM [falling, single point]
13 | CC(C)(C)OC(=O)N1CCC(NC(=O)c2nc[nH]c2C(=O)NCc2ccccc2)CC1 |  | -1.56% | 
14 | c1ccc(Cn2nnc3c(NCc4ccc5c(c4)OCO5)ncnc32)cc1 |  | -12.3% | 2.91 µM [rising, single point]
15 | O=[N+]([O-])c1ccc(O)c(C=Nc2cccc3ccccc23)c1 |  | -9.45% | 16.4 µM [rising, partial curve]
16 | CC1CCN(S(=O)(=O)c2ccc(NC(=O)Cc3ccc(S(=O)(=O)N4CCOCC4)s3)cc2)CC1 |  | -23.2% | 0.82 µM [falling, partial curve]
17 | CC1(C(=O)NC2CCCCC2)CCC(=O)N1Cc1cccnc1 (stereo unspecified) |  | 24.9% | 1.46 µM [rising, partial curve]

Only AC50 [2] and cell number change (two entries from above):
Row	Structure (SMILES)	AC50 [2]	cell number change
5	COc1cccc(C(=O)N2N=C(c3ccccc3)CC2(O)C(F)(F)F)c1 (stereo unspecified)	1.16 µM [falling, partial curve, poor fit]	-4.77%
10	COC(=O)C1C(c2ccc(OC)c(OC)c2)NC(c2ccc(OC)c(OC)c2)C(C(=O)OC)S1(=O)=O (stereo unspecified)	4.61 µM [rising, partial curve]	35.9%
